Results taken from PubChem BioAssay AID445 (National Center for Advancing Translational Sciences (NCATS), 2006).
Some of the results follow. The main result of the screen is listed elsewhere. These columns were measured beside it and carry no call. The list favours compounds with an active or inconclusive main result. Potencies come from curve fits of mixed quality, noted in brackets.

Assay: IkB Signaling
Details: ABC-DLBCL IkBa-CBG/CBR dual luciferase ratio (green luciferase fused to IkBa over red control in OCI-Ly3 lymphoma cells), 4 h
Outline: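 Curves were fitted separately to fusion (green), unfused (red) and ratio luminescence, then classed by r2, magnitude and activity. Cells: OCI-Ly3, 4 h compound plus doxycycline at 37C; 10 uM MG-132 defined full response.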

[1] = measured here: control luc red channel unless noted
[2] = measured here: IkB-luc green channel
[3] = measured here: control luc red channel

COc1cc(NC(=O)Cn2c(=O)nc(-c3ccccc3F)c3cc(Cl)ccc32)cc(OC)c1
AC50 [1]: 31.6 µM [falling, single point]

COC(=O)c1ccccc1NC(=O)Cn1nc(C(F)(F)F)c2c1CCCC2
AC50 [1]: 39.8 µM [falling, single point]

CC(C)c1nc2ccc(C(=O)NCCCN3CCN(c4ccc(F)cc4)CC3)cc2o1
AC50 [1]: 1.26 µM [falling, full curve]

COc1cccc(-n2c(-c3ccc(C)cc3)cc3c2CC(C)(C)CC3=O)c1
AC50 [1]: 20 µM [falling, partial curve]

Cc1ccc2c(c1)CC(C)N2S(=O)(=O)c1nnc(NC(=O)CC(C)C)s1 (configuration not stated)
AC50 [1]: 2.51 µM [rising, partial curve, poor fit]

COc1ccc(OC)c(NC(=O)CCc2c(C)nc3c(c(C)nn3C(C)(C)C)c2C)c1
AC50 [1]: 3.16 µM [falling, full curve]

CCCN(Cc1cc2cc(C)ccc2[nH]c1=O)S(C)(=O)=O
AC50 [1]: 2.51 µM [falling, full curve]

CC(=O)c1sc(NC(=O)C2COc3ccccc3O2)nc1C (configuration not stated)
AC50 [1]: 3.98 µM [falling, full curve]

O=C(c1cccc2ccccc12)N1CCN(c2ccccc2F)CC1
AC50 [1]: 25.1 µM [falling, partial curve]

CC(C)c1ccc(-c2nnn(CCC(=O)O)n2)cc1
AC50 [1]: 6.31 µM [falling, partial curve]

Cc1ccc(N(CC(=O)Nc2cccc(C)c2)S(=O)(=O)c2cccc3nonc23)cc1
AC50 [1]: 10 µM [falling, partial curve]

Cn1c(=O)c2ccccc2n(Cc2ccccc2F)c1=O
AC50 [1]: 15.8 µM [falling, partial curve]

CCOc1ccccc1C(=O)Nc1nnc(COC)s1
AC50 [1]: 3.16 µM [rising, partial curve, poor fit]

COc1ccc2c(C(=O)CN(C)C3CCCCC3)c[nH]c2c1
AC50 [1]: 0.0794 µM [falling, full curve]

CCN(CC)S(=O)(=O)c1ccc2c(c1)c(=O)c(C(=O)NCc1ccccc1OC)cn2C
AC50 [2]: 39.8 µM [rising, single point] | AC50 [3]: 39.8 µM [rising, partial curve]

Cc1ccc(C(=O)N2CCc3cc(CNC(=O)c4ccnn4C)ccc32)cc1
AC50 [1]: 6.31 µM [falling, single point]

Cc1ccc(NS(=O)(=O)c2ccc3c(c2)NC(=O)CCS3)cc1F
AC50 [1]: 15.8 µM [falling, partial curve]

O=C(NCc1ccc2c(c1)CCN2C(=O)c1ccccc1)c1ccc(Br)o1
AC50 [1]: 20 µM [falling, partial curve]

Cc1ccc(-c2nc(-c3cc4cccc(OCc5cccc(F)c5)c4oc3=O)no2)cc1
AC50 [1]: 3.98 µM [falling, full curve]

CCOc1ccc(-n2c(Cc3ccccc3)nnc2SCc2nc(-c3cccs3)no2)cc1
AC50 [1]: 25.1 µM [falling, partial curve]

O=C(Nc1ccc(Br)cc1)c1ccc(Cl)c(S(=O)(=O)N2CCCCCC2)c1
AC50 [1]: 10 µM [falling, partial curve]

COc1cccc(NC(=O)c2sc3nc(C)c(C(=O)Nc4ccc(C)cc4C)c(-c4cccs4)c3c2N)c1
AC50 [1]: 6.31 µM [falling, partial curve]

CSc1nc2ccc(Nc3nc(N4CCOCC4)nc(N4CCOCC4)n3)cc2s1
AC50 [1]: 3.98 µM [falling, full curve, poor fit]

Cc1ccn2c(Nc3c(C)cccc3C)c(-c3ccc(Cl)s3)nc2c1
AC50 [1]: 10 µM [falling, partial curve]

Cc1ccc(OCc2nc(C#N)c(NCc3ccc4c(c3)OCO4)o2)cc1
AC50 [2]: 39.8 µM [falling, single point] | AC50 [3]: 15.8 µM [falling, partial curve]

CCCCN(CCCC)C1=C(C(=O)c2ccccc2)N(CC)S(=O)(=O)c2ccccc21
AC50 [1]: 5.01 µM [falling, partial curve]

O=C(Cc1ccc2c(c1)OCCO2)c1c(O)cc(O)cc1O
AC50 [1]: 12.6 µM [falling, partial curve]

Cc1cc(C)c2nc(-c3ccccn3)cc(C(=O)NCc3ccco3)c2c1
AC50 [1]: 15.8 µM [falling, partial curve]

Cc1ccc(-c2nc(CSCC(=O)N3CCN(c4ccccn4)CC3)c(C)o2)cc1
AC50 [1]: 7.94 µM [falling, partial curve]

O=c1oc2ccc(F)cc2cc1-c1nc(-c2cccs2)no1
AC50 [1]: 1.58 µM [falling, partial curve]

Cc1cc2nc(C3CCN(CC4COc5ccccc5O4)CC3)[nH]c2cc1C (configuration not stated)
AC50 [1]: 25.1 µM [falling, single point]

CCOc1ccc(NC(=O)c2oc(=O)c3ccccc3c2-c2ccc(C)cc2)cc1
AC50 [1]: 39.8 µM [falling, partial curve]

CCn1c2c(c(=O)n3ncc(C(=O)Nc4ccc(F)cc4Cl)c13)CN(Cc1ccc(OC)cc1)CC2
AC50 [1]: 12.6 µM [falling, partial curve]

COc1ccc(-c2nnc(Nc3ccc(OC)c(C(N)=O)c3)c3ccccc23)cc1
AC50 [1]: 15.8 µM [falling, partial curve]

Cc1ccc(C2CC(c3cccc(Br)c3)Nc3nnnn32)cc1 (configuration not stated)
AC50 [1]: 25.1 µM [falling, partial curve]

CCc1ccc2oc(-c3cccc(NC(=O)C(C)(C)Oc4ccc(Br)cc4)c3)nc2c1
AC50 [1]: 2.51 µM [falling, full curve]

Cc1cc(C)cc(Nc2ncnc3onc(-c4ccc(F)cc4)c23)c1
AC50 [1]: 25.1 µM [falling, single point]

COc1cc(OC)cc(C(=O)N(Cc2nc(-c3cccc(C)c3)no2)C(C)C)c1
AC50 [1]: 15.8 µM [falling, partial curve]

COc1cccc(-n2c(SCC(=O)N3CCCc4ccccc43)nc3c([nH]c4ccccc43)c2=O)c1
AC50 [1]: 0.251 µM [falling, full curve]

COc1cc(NC(=O)NC(C)c2c(-n3cccc3)sc3c2CCN(C)C3)cc(OC)c1 (configuration not stated)
AC50 [1]: 39.8 µM [falling, single point]
